Values from PubChem BioAssay AID1259277 (Sanger Institute, 2017)

Test: 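Follow-up of kinome hits for drug and siRNA synthetic lethality in colorectal cancer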 (follow-up of hits)
Cell system: LS123 human colorectal cancer cells
Knock-down reagent: single siRNA against human genes
Conditions: anchor drug BYL719 at 1 µM, cetuximab at 5 µg/ml or trametinib at 10 nM, or DMSO vehicle only, given one day after siRNA delivery
Read-out: 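Replicate mean of viability versus control pool 2 (non-targeting), and a synergy score comparing joint viability with separate effects of anchor drug and siRNA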
Direction: synergy score with trametinib: higher = stronger synergistic killing with trametinib; synergy score with BYL719: higher = stronger synergistic killing with BYL719; synergy score with cetuximab: higher = stronger synergistic killing with cetuximab
Rule for the call: 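Active if synergy exceeds 0.10 for any of the three drug combinations, otherwise inactive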
Meaning of the calls: active = synergy with at least one anchor drug; inactive = no synergy with any anchor drug
Here is a random part of 160 reagents tested. 48 of all reagents (30%) count as active. 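Calls refer to individual siRNAs; confirming a gene required at least two siRNAs in multiple cell lines.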 Not all columns of the deposit are shown. Not given: the amount of reagent, the time to read-out.

Which result is listed for IKBKB (inhibitor of nuclear factor kappa B kinase subunit beta) [SID56475899]?
synergy score with trametinib: -0.0928; synergy score with BYL719: -0.146; synergy score with cetuximab: -0.155; activity call: inactive

What did the screen give for IKBKB (inhibitor of nuclear factor kappa B kinase subunit beta) [SID56475900]?
synergy score with trametinib: -0.0699; synergy score with BYL719: -0.267; synergy score with cetuximab: -0.142; activity call: inactive

How did the screen score IKBKB (inhibitor of nuclear factor kappa B kinase subunit beta) [SID56475901]?
synergy score with trametinib: -0.144; synergy score with BYL719: -0.289; synergy score with cetuximab: -0.278; activity call: inactive

For IKBKB (inhibitor of nuclear factor kappa B kinase subunit beta) [SID56475902], what was measured?
synergy score with trametinib: -0.0927; synergy score with BYL719: -0.288; synergy score with cetuximab: -0.357; activity call: inactive

What is on record for BRAF (B-Raf proto-oncogene, serine/threonine kinase) [SID56475867]?
synergy score with trametinib: 0.00494; synergy score with BYL719: -0.166; synergy score with cetuximab: -0.108; activity call: inactive

What did the screen give for BRAF (B-Raf proto-oncogene, serine/threonine kinase) [SID56475868]?
synergy score with trametinib: 0.169; synergy score with BYL719: -0.0336; synergy score with cetuximab: 0.0425; activity call: active

For BRAF (B-Raf proto-oncogene, serine/threonine kinase) [SID56475869], what does the deposit list?
synergy score with trametinib: 0.166; synergy score with BYL719: -0.181; synergy score with cetuximab: -0.0343; activity call: active

With BRAF (B-Raf proto-oncogene, serine/threonine kinase) [SID56475870], how do the results read?
synergy score with trametinib: -0.094; synergy score with BYL719: -0.151; synergy score with cetuximab: -0.0585; activity call: inactive

With BMPR2 (bone morphogenetic protein receptor type 2) [SID56477247], what does the deposit list?
synergy score with trametinib: -0.0541; synergy score with BYL719: -0.205; synergy score with cetuximab: -0.118; activity call: inactive

For BMPR2 (bone morphogenetic protein receptor type 2) [SID56477249], what does the deposit list?
synergy score with trametinib: 0.153; synergy score with BYL719: -0.103; synergy score with cetuximab: 0.0391; activity call: active

For BMPR2 (bone morphogenetic protein receptor type 2) [SID56477250], what was measured?
synergy score with trametinib: -0.139; synergy score with BYL719: -0.338; synergy score with cetuximab: -0.118; activity call: inactive

Which result is listed for BMPR2 (bone morphogenetic protein receptor type 2) [SID135611748]?
synergy score with trametinib: -0.124; synergy score with BYL719: -0.266; synergy score with cetuximab: -0.111; activity call: inactive
